Data as given in PubChem BioAssay AID504791 (Drosophila RNAi Screening Center, 2011)
The screen tested about 23,000 reagents; shown is an unselected part of those that have a named target and a result. In the full data, 199 (0.86%) were called active. 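Plate-scaled ratios behind the calls are not deposited; printed light signals are raw; many rows marked increased or decreased are still called inactive.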 Entries without a mark were called inactive. The record does not give: the direction of the score.

Test: 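Factors in Argonaute-based small RNA production and activity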 (primary screen)
Cell system: Drosophila S2-derived reporter cells
Reagent: long dsRNA against Drosophila genes, about 150-250 ng dsRNA per well (siRNA assay); about 80-120 ng (miRNA assay)
Duration: about 5 days (siRNA assay); about 4 days (miRNA assay)
Treatment: copper sulfate induction of reporters: 25 µM (siRNA assay); 200 mM stated (miRNA assay), 1-2 days before reading
Read-out: 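Per-well ratio of Renilla over firefly light, expressed relative to that plate's average ratio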
Units: stable assay Renilla, run 1 in luminescence; stable assay firefly, run 1 in luminescence
Rule for the call: 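a well was a first-pass pick when its plate-scaled ratio rose above 1.5 (siRNA assay) or 1.6 (miRNA assay), or dropped below 0.6; a gene counted only if two separate dsRNAs agreed on retest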

CG5541 [DRSC19946] | stable assay Renilla, run 1 = 7826; stable assay firefly, run 1 = 4.91e5
Pus1 [DRSC15548] | stable assay Renilla, run 1 = 6868; stable assay firefly, run 1 = 3.39e5
CG12540 [DRSC19471] | stable assay Renilla, run 1 = 4447; stable assay firefly, run 1 = 4.29e5
CG12081 [DRSC17802] | stable assay Renilla, run 1 = 7801; stable assay firefly, run 1 = 4.61e5
CG42758 [DRSC10021] | stable assay Renilla, run 1 = 6466; stable assay firefly, run 1 = 3.50e5
pyx [DRSC08510] | stable assay Renilla, run 1 = 6442; stable assay firefly, run 1 = 3.64e5
pyx [DRSC08511] | stable assay Renilla, run 1 = 7259; stable assay firefly, run 1 = 4.10e5
CG5084 [DRSC06913] | stable assay Renilla, run 1 = 6135; stable assay firefly, run 1 = 4.04e5
Rpp30 [DRSC00320] | stable assay Renilla, run 1 = 9902; stable assay firefly, run 1 = 2.32e5
GABPI [DRSC00494] | stable assay Renilla, run 1 = 35520; stable assay firefly, run 1 = 5.52e5
Snx21 [DRSC00564] | stable assay Renilla, run 1 = 11884; stable assay firefly, run 1 = 4.00e5
Spn88Eb [DRSC16093] | stable assay Renilla, run 1 = 7740; stable assay firefly, run 1 = 4.58e5
CG13085 [DRSC02189] | stable assay Renilla, run 1 = 6532; stable assay firefly, run 1 = 3.65e5
CG8915 [DRSC20119] | stable assay Renilla, run 1 = 7171; stable assay firefly, run 1 = 3.71e5
CG14342 [DRSC00372] | stable assay Renilla, run 1 = 7519; stable assay firefly, run 1 = 3.68e5
CG14634 [DRSC17944] | stable assay Renilla, run 1 = 6676; stable assay firefly, run 1 = 4.77e5

Targets listed so far whose target name starts with P or p (3):
Pus1 [DRSC15548] | stable assay Renilla, run 1 = 6868; stable assay firefly, run 1 = 3.39e5
pyx [DRSC08510] | stable assay Renilla, run 1 = 6442; stable assay firefly, run 1 = 3.64e5
pyx [DRSC08511] | stable assay Renilla, run 1 = 7259; stable assay firefly, run 1 = 4.10e5

The listing continues:
Inos [DRSC07655] | stable assay Renilla, run 1 = 6882; stable assay firefly, run 1 = 3.74e5
btv [DRSC01615] | stable assay Renilla, run 1 = 6222; stable assay firefly, run 1 = 4.31e5
btv [DRSC02449] | stable assay Renilla, run 1 = 6996; stable assay firefly, run 1 = 3.64e5
CG10898 [DRSC14279] | stable assay Renilla, run 1 = 7880; stable assay firefly, run 1 = 5.22e5
Cyp310a1 [DRSC03301] | stable assay Renilla, run 1 = 8123; stable assay firefly, run 1 = 1.82e6
CG1299 [DRSC08300] | stable assay Renilla, run 1 = 6570; stable assay firefly, run 1 = 4.28e5
cv-c [DRSC14969] | stable assay Renilla, run 1 = 7631; stable assay firefly, run 1 = 3.94e5
cv-c [DRSC14970] | stable assay Renilla, run 1 = 6735; stable assay firefly, run 1 = 4.53e5
cv-c [DRSC14971] | stable assay Renilla, run 1 = 6512; stable assay firefly, run 1 = 3.36e5
cv-c [DRSC14972] | stable assay Renilla, run 1 = 6395; stable assay firefly, run 1 = 4.58e5
cv-c [DRSC14973] | stable assay Renilla, run 1 = 5240; stable assay firefly, run 1 = 3.41e5
cv-c [DRSC16428] | stable assay Renilla, run 1 = 8867; stable assay firefly, run 1 = 4.29e5
cv-c [DRSC23199] | stable assay Renilla, run 1 = 2528; stable assay firefly, run 1 = 2.85e5
CG15269 [DRSC01942] | stable assay Renilla, run 1 = 7778; stable assay firefly, run 1 = 4.50e5
CG3288 [DRSC11745] | stable assay Renilla, run 1 = 7274; stable assay firefly, run 1 = 3.43e5
Hsc70-1 [DRSC11185] | stable assay Renilla, run 1 = 8752; stable assay firefly, run 1 = 7.75e5
bumpel [DRSC16100] | stable assay Renilla, run 1 = 6780; stable assay firefly, run 1 = 4.34e5
Galphas [DRSC04616] | stable assay Renilla, run 1 = 26994; stable assay firefly, run 1 = 1.26e6
DCP2 [DRSC10597] | stable siRNA reporter change = reporter ratio lowered past the hit cutoff (active); miRNA reporter change = reporter ratio lowered past the hit cutoff; stable assay Renilla, run 1 = 5119; stable assay firefly, run 1 = 3.82e5
